PubChem BioAssay AID504774 | Drosophila RNAi Screening Center – 2011

Test: 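Knock-downs that shift viability of MMS-exposed cells relative to untreated ones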 (primary screen)
Cell system: Drosophila Kc167 cells
Reagent: long dsRNA against Drosophila genes, about 0.25 µg dsRNA per well
Timing: about 6 days: 3 days knock-down, then 3 days with or without MMS
Conditions: methyl methanesulphonate 0.004% (w/v) for 3 days after knock-down
Detection: 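Viability in wells given MMS, read as ATP luminescence, normalised by quantiles plate by plate and averaged across replicates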
Direction: mean viability with MMS and viability with MMS: higher = more surviving cells after MMS
In all, the deposit lists about 23,000 reagents; this is an unselected part of those that have a named target and a result. 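Values are quantile-normalised luminescence on an arbitrary scale; higher means more cells surviving MMS.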 The numbers tell different reagents against one gene apart. Names joined by + are all predicted targets of the reagent. Not all columns of the deposit are shown. Reagent sequences are not shown.

With Dad1, what does the deposit list?
mean viability with MMS: 3.44e6; viability with MMS, replicate 1: 3.82e6

How did the screen score Pka-C1 #1?
mean viability with MMS: 3.58e6; viability with MMS, replicate 1: 4.13e6

What is on record for Pka-C1 #2?
mean viability with MMS: 3.73e6; viability with MMS, replicate 1: 4.23e6

How did the screen score TTLL5?
mean viability with MMS: 3.42e6; viability with MMS, replicate 1: 3.99e6

For PAN2, what does the deposit list?
mean viability with MMS: 3.44e6; viability with MMS, replicate 1: 3.86e6

For CG15930, what was measured?
mean viability with MMS: 3.59e6; viability with MMS, replicate 1: 3.94e6

What is on record for CG11370?
mean viability with MMS: 3.45e6; viability with MMS, replicate 1: 3.92e6

For CG5404, what does the deposit list?
mean viability with MMS: 3.29e6; viability with MMS, replicate 1: 3.69e6

For Abd-B #1, how do the results read?
mean viability with MMS: 3.59e6; viability with MMS, replicate 1: 4.12e6

With Abd-B #2, what does the deposit list?
mean viability with MMS: 3.62e6; viability with MMS, replicate 1: 4.08e6

With Obp51a, what does the deposit list?
mean viability with MMS: 3.71e6; viability with MMS, replicate 1: 4.06e6

For Btk #1, what does the deposit list?
mean viability with MMS: 3.53e6; viability with MMS, replicate 1: 4.00e6

With Btk #2, what was measured?
mean viability with MMS: 3.66e6; viability with MMS, replicate 1: 4.40e6

For Btk #3, how do the results read?
mean viability with MMS: 3.68e6; viability with MMS, replicate 1: 4.13e6

How did the screen score Adk1?
mean viability with MMS: 3.48e6; viability with MMS, replicate 1: 3.98e6

With Or33a, what was measured?
mean viability with MMS: 3.56e6; viability with MMS, replicate 1: 3.99e6

What did the screen give for L2HGDH?
mean viability with MMS: 3.61e6; viability with MMS, replicate 1: 4.14e6

What is on record for CG7950 + Rpp14a?
mean viability with MMS: 3.47e6; viability with MMS, replicate 1: 3.90e6

What is on record for Gmap #1?
mean viability with MMS: 3.52e6; viability with MMS, replicate 1: 3.95e6

With Gmap #2, how do the results read?
mean viability with MMS: 3.65e6; viability with MMS, replicate 1: 4.06e6

An excerpt from above, showing only “viability with MMS, replicate 1”.
Btk #1 = 4.00e6
Btk #2 = 4.40e6

The listing continues.
For CG7196 (retired record) #1, what does the deposit list?
mean viability with MMS: 3.79e6; viability with MMS, replicate 1: 4.16e6

With CG7196 (retired record) #2, what does the deposit list?
mean viability with MMS: 3.32e6; viability with MMS, replicate 1: 3.70e6

For Nap1, how do the results read?
mean viability with MMS: 3.69e6; viability with MMS, replicate 1: 4.17e6

For CG1138, what was measured?
mean viability with MMS: 3.63e6; viability with MMS, replicate 1: 4.09e6

For CG9747, what does the deposit list?
mean viability with MMS: 3.47e6; viability with MMS, replicate 1: 3.87e6

For CG4907, what was measured?
mean viability with MMS: 3.52e6; viability with MMS, replicate 1: 3.88e6

How did the screen score cd?
mean viability with MMS: 3.74e6; viability with MMS, replicate 1: 4.32e6

For Ugt37A2, what was measured?
mean viability with MMS: 3.42e6; viability with MMS, replicate 1: 3.96e6

Which result is listed for CG31457?
mean viability with MMS: 3.66e6; viability with MMS, replicate 1: 4.01e6

For CG15330, what was measured?
mean viability with MMS: 3.63e6; viability with MMS, replicate 1: 4.09e6

What is on record for CG31913?
mean viability with MMS: 3.57e6; viability with MMS, replicate 1: 4.21e6

For cib, how do the results read?
mean viability with MMS: 3.63e6; viability with MMS, replicate 1: 4.19e6

With Csgalnact, how do the results read?
mean viability with MMS: 3.50e6; viability with MMS, replicate 1: 4.03e6

With CG31418, what does the deposit list?
mean viability with MMS: 3.46e6; viability with MMS, replicate 1: 3.95e6

For Shawl #1, what was measured?
mean viability with MMS: 3.55e6; viability with MMS, replicate 1: 4.09e6

What is on record for Shawl #2?
mean viability with MMS: 3.70e6; viability with MMS, replicate 1: 4.35e6
